According to patent US8252554B2, “Halohydrin dehalogenases and related polynucleotides” (Codexis, Inc., priority 2003, dated 2012):
Some entries share one result that the patent states for a list of compounds.

B1: SEQ ID NO: 94: HHDH polypeptide of the Sequence Listing; halohydrin dehalogenase used in Example 10 (protein)
chain: MSTAIVTNVKHFGGMGSALRLSEAGHTVACHDESFKQKDELEAFAETYPQLKPMSEQEPAELIEAVTSAFGQVDVLVSNDIFALEFQPIDKYAVEDYRGAVEALQIRPFALVNAVASQMKKRKSGHIIFITSAAPFGPWKELSTYTSARAGASTLANALSKELGEYNIPVFAIGPNYLHSEDSPYYYPTEPWKINPEHVAHVKKVTALQRLGTQKELGELVAFLASGSCDYLTGQVFWLAGGFPTIERWPGMPE
B2: SEQ ID NO: 96: HHDH polypeptide of the Sequence Listing; halohydrin dehalogenase used in Example 11 (protein)
chain: MSTAIVTNVKHFGGMGSALRLSEAGHTVACHDESFKQKDELEAFAETYPQLKPMSEQEPAELIEAVTSAFGQVDVLVSNDIFALEFQPIDKYAVEDYRGAVEALQIRPFALVNAVASQMKKRKSGHIIFITSAAPFGPWKELSTYTSARAGASTLANALSKELGEYNIPVFAIGPNYLHSEDSPYYYPTEPWKINPEHVAHVKKVTALQRLGTQKELGELVAFLASGSCDYLTGQVFWLAGGFPTIERWPGMPE
B3: SEQ ID NO: 98: HHDH polypeptide of the Sequence Listing; halohydrin dehalogenase used in Example 12 (protein)
chain: MSTAIVTNVKHFGGMGSALRLSEAGHTVACHDESFKHKDELEAFAETYPQLKPMSEQEPAELIEAVTSAFGQVDVLVSNDIFALEFRPIDKYAVEDYRGAVEALQIRPFALVNAVASQMKKRKSGHIIFITSAAPFGPWKELSTYSSARAGASALANALSKELGEYNIPVFAIGPNYLHSEDSPYYYPTEPWKINPEHVAHVKKVTALQRLGTQKELGELVAFLASGSCDYLTGQVFWLAGGFPVIERWPGMPE
B4: SEQ ID NO: 90: HHDH polypeptide of the Sequence Listing; halohydrin dehalogenase used in Example 9 (protein)
chain: MSTAIVTNVKHFGGMGSALRLSEGGHTVACHDESFKQKDELEAFAETYPQLKPMSEQEPAELIEAVTSAFGQVDVLVSNDIFAPEFQPIDKYAVEDYRGAVEALQIRPFALVNAVASQMKKRKSGHIIFITSAAPFGPWKELSTYTSARAGASTLANALSKELGEYNIPVFAIGPNYLHSEDSPYFYPTEPWKTNPEHVAHVKKVTALQRLGTQKELGELVAFLASGSCDYLTGQVFWLAGGFPMIERWPGMPE

Experiment: Examples 8-12 percent conversion vs. time of ethyl (S)-4-chloro-3-hydroxybutyrate with aqueous hydrocyanic acid (FIG. 2)
Format: biochemical
Conditions: 40° C., pH 7, 0.4 g enzyme, 5.00 g substrate

| Molecule | percent conversion vs. time compared with native halohydrin dehalogenase (Example 8, SEQ ID NO. 32) |
| --- | --- |
| B1 | greater activity than the native halohydrin dehalogenase |
| B2 | greater activity than the native halohydrin dehalogenase |
| B3 | greater activity than the native halohydrin dehalogenase |
| B4 | greater activity than the native halohydrin dehalogenase |
